This passage reports binding results from patent publication US20110055942A1.

No constants are given. Whether binding was seen depends on the method and setting. Some results given as binding are weak or reduced against the parent protein; the word gives no strength.

In this assay the target is T1, BMPR-2 receptor extra cellular domain (ECD) (UniProt Q13873).
T1 sequence (looked up): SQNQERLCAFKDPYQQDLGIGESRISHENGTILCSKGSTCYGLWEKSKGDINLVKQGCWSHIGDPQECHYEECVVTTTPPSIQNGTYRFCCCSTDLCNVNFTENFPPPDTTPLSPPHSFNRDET
Description: radio-ligand competition with 125I-labeled TDF-1 on immobilized receptor.

B1: SEQ ID NO:45 (peptide)
peptide: CYFDDSSNVLCKKYRS
As for B1, the binding entry is listed as “binds”.
